{
  "source": "patent US20090269394A1",
  "about": "“METHODS AND COMPOSITIONS FOR TREATING ONCHOMYCOSIS” (priority 2008, published 2009)",
  "key": {"[1]": {"test_system": "Trichophyton rubrum, Trichophyton mentagrophytes and Epidermophyton floccosum", "experiment": "Spontaneous resistance development, summary", "type": "cell-based", "conditions": "plates with 2×, 4× or 8× the MIC; none of the isolates stably resistant"}, "[2]": {"test_system": "Fusarium spp.", "experiment": "MIC against rare onychomycosis pathogens (CLSI M 38-A)", "type": "cell-based", "conditions": "10 isolates; NB-002 as μg CPC/ml", "text": "Methods: All fungi were from patients, many of which had onychomycosis or another tinea infection."}},
  "note": "For at least one compound, name, drawing or mass did not settle the structure.",
  "data": [
    {"smiles": "CCC(C)n1ncn(-c2ccc(N3CCN(c4ccc(OCC5COC(Cn6cncn6)(c6ccc(Cl)cc6Cl)O5)cc4)CC3)cc2)c1=O", "note": "(centres unmarked) [Itraconazole]", "values": [
      {"measurement": "Phenotypic resistance (frequency of appearance)", "setting": "[1]", "result": "1−5×10^−7"},
      {"measurement": "MIC range", "setting": "[2]", "result": "2->8"}
    ]}
  ]
}
